Article PMC7862700
This is a selection; strong and weak results do not stand in their true shares. At the low end of the ranking the order means little.

Target: SPI1 (UniProt P17947)
Experiment: DAPPL (digital affinity profiling via proximity ligation, sequencing)
Settings: 10 mM Tris-HCl pH 7.5, 50 mM NaCl, 1 mM DTT, 4% glycerol, room temperature, 30 min; GST-TFs on glutathione beads, 16-mer random dsDNA library, 0.1% …; high values mean tight binding; double strand, one strand shown; scale: fold enrichment (6-mer frequency, TF over GST control)

Sequence | binding signal
GGGATG | 0.989
GCGGGA | 0.376
GTCAAC | 0.911
AGCCAA | 0.868
ACACAG | 0.847
CAGTGT | 0.652
GAGAGG | 0.396
GTCGCC | 0.931
GACCAC | 0.827
CAAGTC | 0.803
GACGGT | 0.469
ATAGAG | 0.917
CGAGCC | 0.937
GATTGG | 0.84
AGATCG | 0.457
CACGGT | 0.859
GTGGGC | 0.795
GACGTG | 0.33
ACGAGT | 0.766
GTCGTG | 0.383

Sequence | binding signal
GGATCG | 0.601
GTGAGC | 0.383
ATCCAG | 0.817
TGAGAG | 0.547
CGGACA | 0.735
CGCAGT | 0.783
AGGATC | 0.887
GGGAGA | 0.336
GCGTGC | 0.788
GCTGTG | 0.621
GTGATC | 0.779
TGTGTG | 0.876
TCGTGT | 0.733
CGGCGG | 0.589
AGACGA | 0.748
CGGACT | 0.806
ATCAGG | 0.902
GCGGCC | 0.838
AAGAGC | 0.854
GTTAGG | 0.788

Look-ups from the list.
binding signal with AGATCG is entered as 0.457
binding signal with GGGAGA is entered as 0.336
binding signal with GTGATC is entered as 0.779
